# The other results are listed elsewhere or left out. Most values lie at the level of the controls, where differences are scatter.
# The chains behind the UniProt entries cited, without tags or fusion partners. Where a name states a change or a piece, a line headed by the entry shows the natural chain unless it says otherwise.
# UniProt Q9Y6A4: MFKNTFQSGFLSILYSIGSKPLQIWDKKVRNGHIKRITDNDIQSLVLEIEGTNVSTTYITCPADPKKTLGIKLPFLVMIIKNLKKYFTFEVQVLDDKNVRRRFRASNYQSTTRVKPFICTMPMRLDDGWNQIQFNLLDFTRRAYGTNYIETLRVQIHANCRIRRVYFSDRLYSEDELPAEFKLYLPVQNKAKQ
# UniProt Q9Y5V0: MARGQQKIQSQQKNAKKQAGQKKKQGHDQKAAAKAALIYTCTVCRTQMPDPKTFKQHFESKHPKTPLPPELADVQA
# UniProt Q9Y3D8, whole entry: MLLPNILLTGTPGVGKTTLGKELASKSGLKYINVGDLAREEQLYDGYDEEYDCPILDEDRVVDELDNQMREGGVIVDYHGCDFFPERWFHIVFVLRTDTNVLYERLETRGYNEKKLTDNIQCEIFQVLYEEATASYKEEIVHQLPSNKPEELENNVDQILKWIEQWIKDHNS
# UniProt Q9Y6M0: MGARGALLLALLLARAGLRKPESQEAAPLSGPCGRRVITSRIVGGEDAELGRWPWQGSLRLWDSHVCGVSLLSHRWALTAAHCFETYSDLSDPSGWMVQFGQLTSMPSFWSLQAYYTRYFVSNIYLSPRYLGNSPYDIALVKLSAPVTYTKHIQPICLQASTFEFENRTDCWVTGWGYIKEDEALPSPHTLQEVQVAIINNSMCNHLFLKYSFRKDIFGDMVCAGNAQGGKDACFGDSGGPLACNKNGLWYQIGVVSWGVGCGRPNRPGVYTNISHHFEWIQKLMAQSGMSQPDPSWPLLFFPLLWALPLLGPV
# UniProt Q9Y5Z9: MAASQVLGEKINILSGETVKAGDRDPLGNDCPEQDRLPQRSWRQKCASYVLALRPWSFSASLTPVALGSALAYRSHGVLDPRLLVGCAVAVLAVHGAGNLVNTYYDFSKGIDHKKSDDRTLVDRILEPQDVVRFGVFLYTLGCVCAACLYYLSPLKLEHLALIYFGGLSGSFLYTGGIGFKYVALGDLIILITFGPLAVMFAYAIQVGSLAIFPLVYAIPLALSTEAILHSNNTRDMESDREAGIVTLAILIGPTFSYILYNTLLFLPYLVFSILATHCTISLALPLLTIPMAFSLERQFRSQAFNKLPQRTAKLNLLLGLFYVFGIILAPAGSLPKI
# UniProt Q9Y5J7: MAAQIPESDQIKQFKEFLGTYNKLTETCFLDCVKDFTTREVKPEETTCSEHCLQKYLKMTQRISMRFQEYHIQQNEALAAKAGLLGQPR
# UniProt Q9Y570: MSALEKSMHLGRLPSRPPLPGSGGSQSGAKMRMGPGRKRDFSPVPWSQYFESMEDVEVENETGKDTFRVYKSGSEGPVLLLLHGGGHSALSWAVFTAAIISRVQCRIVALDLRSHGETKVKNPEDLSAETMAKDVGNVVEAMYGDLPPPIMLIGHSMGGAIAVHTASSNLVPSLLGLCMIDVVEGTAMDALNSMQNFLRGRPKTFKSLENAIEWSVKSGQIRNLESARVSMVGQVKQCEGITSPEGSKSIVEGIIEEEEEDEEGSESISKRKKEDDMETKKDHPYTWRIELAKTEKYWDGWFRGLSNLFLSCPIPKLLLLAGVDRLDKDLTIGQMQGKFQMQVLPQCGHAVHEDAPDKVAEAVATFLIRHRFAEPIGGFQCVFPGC
# UniProt Q9Y3I0: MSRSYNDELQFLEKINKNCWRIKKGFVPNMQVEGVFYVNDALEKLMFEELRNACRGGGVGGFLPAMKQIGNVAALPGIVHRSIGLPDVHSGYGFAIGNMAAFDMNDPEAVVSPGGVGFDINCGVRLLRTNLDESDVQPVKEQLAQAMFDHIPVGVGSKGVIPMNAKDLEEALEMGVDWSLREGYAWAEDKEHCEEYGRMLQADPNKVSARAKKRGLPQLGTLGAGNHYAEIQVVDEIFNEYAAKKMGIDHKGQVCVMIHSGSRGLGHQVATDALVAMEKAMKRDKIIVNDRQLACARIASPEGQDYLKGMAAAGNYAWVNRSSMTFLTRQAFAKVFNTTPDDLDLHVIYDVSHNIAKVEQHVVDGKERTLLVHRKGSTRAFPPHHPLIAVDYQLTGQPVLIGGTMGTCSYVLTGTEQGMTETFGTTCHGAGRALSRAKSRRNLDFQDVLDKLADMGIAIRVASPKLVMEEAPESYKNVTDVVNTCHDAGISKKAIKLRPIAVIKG
# UniProt Q9Y6Q9, whole entry, looked up: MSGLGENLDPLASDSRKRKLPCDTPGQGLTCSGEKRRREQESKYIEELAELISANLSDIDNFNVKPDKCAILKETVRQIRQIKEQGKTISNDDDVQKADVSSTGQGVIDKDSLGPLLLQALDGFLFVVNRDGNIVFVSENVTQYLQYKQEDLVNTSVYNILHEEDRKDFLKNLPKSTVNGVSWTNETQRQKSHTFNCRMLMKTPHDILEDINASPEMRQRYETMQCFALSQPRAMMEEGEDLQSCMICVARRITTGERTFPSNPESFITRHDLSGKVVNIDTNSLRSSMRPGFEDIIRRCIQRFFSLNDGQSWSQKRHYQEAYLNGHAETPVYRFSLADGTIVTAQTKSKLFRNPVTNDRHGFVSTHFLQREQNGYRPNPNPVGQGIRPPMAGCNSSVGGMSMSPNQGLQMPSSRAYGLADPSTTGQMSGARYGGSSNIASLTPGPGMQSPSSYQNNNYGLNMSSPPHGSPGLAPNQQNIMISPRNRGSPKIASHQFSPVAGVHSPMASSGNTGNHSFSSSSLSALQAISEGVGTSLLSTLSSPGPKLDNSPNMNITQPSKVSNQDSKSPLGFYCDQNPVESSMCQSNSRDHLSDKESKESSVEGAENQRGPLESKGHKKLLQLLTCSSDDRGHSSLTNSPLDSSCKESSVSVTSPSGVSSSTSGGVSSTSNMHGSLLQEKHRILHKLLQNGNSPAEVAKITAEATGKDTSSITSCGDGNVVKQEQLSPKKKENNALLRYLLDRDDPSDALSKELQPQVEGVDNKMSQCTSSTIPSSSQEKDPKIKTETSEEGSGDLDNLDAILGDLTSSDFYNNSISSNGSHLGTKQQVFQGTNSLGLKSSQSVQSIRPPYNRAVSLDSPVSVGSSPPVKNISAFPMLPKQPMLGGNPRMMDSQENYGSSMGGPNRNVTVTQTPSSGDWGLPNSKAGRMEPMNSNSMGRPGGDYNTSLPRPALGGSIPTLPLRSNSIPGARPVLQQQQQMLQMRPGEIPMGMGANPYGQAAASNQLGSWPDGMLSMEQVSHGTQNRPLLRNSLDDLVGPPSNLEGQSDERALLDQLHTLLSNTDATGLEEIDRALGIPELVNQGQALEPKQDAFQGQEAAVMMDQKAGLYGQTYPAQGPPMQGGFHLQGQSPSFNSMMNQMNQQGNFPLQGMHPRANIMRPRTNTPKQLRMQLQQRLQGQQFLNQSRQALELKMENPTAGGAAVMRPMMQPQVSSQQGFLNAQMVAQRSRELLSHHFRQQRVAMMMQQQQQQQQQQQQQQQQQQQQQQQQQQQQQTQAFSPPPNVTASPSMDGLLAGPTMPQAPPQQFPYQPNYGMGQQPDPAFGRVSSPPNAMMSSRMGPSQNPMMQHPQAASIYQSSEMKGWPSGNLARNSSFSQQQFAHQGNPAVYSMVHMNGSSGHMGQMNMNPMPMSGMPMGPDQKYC
# UniProt Q9Y485, whole entry: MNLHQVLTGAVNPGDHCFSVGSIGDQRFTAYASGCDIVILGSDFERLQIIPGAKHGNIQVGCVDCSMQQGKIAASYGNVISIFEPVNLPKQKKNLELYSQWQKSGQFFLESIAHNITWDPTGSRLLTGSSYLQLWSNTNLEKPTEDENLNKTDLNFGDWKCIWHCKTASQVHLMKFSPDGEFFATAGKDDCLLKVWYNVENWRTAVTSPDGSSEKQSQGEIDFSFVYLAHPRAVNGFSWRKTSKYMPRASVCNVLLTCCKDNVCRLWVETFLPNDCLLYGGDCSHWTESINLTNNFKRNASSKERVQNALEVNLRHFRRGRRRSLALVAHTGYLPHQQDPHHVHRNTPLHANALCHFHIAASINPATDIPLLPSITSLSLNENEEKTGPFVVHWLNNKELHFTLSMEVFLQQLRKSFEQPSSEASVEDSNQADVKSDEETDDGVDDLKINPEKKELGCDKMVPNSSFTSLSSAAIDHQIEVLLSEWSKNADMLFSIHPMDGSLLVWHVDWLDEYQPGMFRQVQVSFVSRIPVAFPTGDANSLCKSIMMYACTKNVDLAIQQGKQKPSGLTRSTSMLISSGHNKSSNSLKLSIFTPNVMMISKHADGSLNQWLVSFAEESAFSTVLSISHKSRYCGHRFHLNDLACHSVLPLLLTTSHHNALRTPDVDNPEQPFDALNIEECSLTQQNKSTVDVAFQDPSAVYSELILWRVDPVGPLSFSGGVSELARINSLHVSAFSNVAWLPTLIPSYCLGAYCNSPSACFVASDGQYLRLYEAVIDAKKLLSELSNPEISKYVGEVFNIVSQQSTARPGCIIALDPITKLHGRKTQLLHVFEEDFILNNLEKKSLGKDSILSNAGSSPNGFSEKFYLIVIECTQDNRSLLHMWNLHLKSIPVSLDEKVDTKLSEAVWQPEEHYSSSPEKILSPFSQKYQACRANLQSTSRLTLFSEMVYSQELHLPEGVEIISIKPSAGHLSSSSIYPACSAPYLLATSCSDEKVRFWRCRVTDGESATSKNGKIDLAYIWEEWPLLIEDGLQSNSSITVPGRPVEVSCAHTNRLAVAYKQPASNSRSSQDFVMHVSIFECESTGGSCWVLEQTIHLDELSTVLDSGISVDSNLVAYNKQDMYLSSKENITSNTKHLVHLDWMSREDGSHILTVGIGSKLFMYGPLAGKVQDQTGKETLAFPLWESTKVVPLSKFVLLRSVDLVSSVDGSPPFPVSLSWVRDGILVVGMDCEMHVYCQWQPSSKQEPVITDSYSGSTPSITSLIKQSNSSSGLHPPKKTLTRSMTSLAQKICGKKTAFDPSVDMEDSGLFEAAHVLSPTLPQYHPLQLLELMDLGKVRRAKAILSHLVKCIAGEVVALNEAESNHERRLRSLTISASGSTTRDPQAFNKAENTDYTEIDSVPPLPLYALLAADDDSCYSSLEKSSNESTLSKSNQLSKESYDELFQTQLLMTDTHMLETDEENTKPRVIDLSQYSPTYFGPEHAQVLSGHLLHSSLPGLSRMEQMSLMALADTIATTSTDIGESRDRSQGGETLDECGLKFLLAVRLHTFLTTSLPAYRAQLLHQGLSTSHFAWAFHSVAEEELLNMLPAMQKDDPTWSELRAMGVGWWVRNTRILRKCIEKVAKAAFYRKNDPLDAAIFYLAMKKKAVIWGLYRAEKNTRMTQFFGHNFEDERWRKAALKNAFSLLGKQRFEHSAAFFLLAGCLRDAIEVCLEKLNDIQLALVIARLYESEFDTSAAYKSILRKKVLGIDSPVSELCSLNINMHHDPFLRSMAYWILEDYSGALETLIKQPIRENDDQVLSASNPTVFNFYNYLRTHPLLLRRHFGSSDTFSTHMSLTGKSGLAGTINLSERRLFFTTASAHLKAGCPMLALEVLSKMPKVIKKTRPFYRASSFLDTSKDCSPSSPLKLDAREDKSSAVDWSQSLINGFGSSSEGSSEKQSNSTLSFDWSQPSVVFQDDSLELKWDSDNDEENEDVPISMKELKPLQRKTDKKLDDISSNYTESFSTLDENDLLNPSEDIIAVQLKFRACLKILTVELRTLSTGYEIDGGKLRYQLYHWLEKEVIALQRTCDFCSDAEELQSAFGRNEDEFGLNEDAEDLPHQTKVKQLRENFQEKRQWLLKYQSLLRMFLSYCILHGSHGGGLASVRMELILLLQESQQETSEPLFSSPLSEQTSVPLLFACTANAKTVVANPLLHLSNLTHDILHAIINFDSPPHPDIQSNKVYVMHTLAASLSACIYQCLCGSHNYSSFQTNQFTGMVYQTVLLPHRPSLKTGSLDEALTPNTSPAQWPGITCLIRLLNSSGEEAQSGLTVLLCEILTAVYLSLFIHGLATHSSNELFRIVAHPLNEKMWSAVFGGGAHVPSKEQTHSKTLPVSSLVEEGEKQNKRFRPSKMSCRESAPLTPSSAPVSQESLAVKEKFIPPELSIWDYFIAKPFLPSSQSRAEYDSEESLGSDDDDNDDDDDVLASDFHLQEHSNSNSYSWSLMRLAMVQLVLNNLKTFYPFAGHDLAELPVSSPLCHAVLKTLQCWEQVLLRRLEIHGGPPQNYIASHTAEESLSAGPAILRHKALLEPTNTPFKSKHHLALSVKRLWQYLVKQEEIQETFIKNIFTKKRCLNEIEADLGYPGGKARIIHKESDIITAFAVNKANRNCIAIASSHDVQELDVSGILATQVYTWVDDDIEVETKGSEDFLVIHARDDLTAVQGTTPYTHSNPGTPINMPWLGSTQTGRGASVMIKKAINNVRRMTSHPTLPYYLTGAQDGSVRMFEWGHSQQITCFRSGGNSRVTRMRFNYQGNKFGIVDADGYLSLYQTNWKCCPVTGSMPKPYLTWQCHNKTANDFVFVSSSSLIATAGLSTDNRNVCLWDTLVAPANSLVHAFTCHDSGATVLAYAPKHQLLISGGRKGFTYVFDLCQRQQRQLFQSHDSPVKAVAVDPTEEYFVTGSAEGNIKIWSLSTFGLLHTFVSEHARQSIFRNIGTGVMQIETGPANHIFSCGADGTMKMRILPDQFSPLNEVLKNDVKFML
# Compound: CN[C@@H]1C[C@H]2O[C@@](C)([C@@H]1OC)n1c3ccccc3c3c4c(c5c6ccccc6n2c5c31)C(=O)NC4 [staurosporine]
# Assay: log2 fold change of tryptic peptide abundance, ligand vs vehicle (limited proteolysis) (log2 ratio); higher = more trypsin-susceptible (destabilized)
# Conditions: ligand concentration: 20 uM; sample: K562 cleared lysate; digestion: 4 min, 22 C (HT-PELSA RT4min, Orbitrap Astral)
row,Target,log2 fold change
1,"UniProt Q9Y6A4 (peptide sequence: LYLPVQNK, peptide start residue: 183)",0.0864
2,"PKP3 (peptide sequence: LLQLGQQPR, peptide start residue: 54) (UniProt Q9Y446)",0.108
3,"COMMD10 (peptide sequence: VLVEFSHK, peptide start residue: 175) (UniProt Q9Y6G5)",-0.291
4,"UniProt Q9Y5V0 (peptide sequence: AALIYTCTVCR, peptide start residue: 35)",-0.0172
5,"AK6 (peptide sequence: WIEQWIK, peptide start residue: 162) (UniProt Q9Y3D8)",-0.128
6,"CD2AP (peptide sequence: ANTTAFLTPLEIK, peptide start residue: 558) (UniProt Q9Y5K6)",-0.48
7,"PRSS21 (peptide sequence: LSAPVTYTK, peptide start residue: 143) (UniProt Q9Y6M0)",-0.111
8,"TPRKB (peptide sequence: MQLTHQLDLFPECR, peptide start residue: 1) (UniProt Q9Y3C4)",0.33
9,"PCYT1B (peptide sequence: MLQALSPK, peptide start residue: 310) (UniProt Q9Y5K3)",0.0714
10,"SAR1B (peptide sequence: TTLLHMLKDDR, peptide start residue: 39) (UniProt Q9Y6B6)",0.31
11,"UBIAD1 (peptide sequence: INILSGETVK, peptide start residue: 11) (UniProt Q9Y5Z9)",0.34
12,"UniProt Q9Y530 (peptide sequence: NGVTDLSMPR, peptide start residue: 110)",-0.189
13,"UniProt Q9Y4E1 (peptide sequence: DSGTLQSQEAK, peptide start residue: 647)",-0.163
14,"FAM32A (peptide sequence: HLDTLTEHYDIPK, peptide start residue: 95) (UniProt Q9Y421)",-0.555
15,"GOLT1B (peptide sequence: RVPVLGSLLNLPGIR, peptide start residue: 111) (UniProt Q9Y3E0)",0.231
16,"PLEKHM1 (peptide sequence: SWISEDDFYRPSR, peptide start residue: 440) (UniProt Q9Y4G2)",-0.129
17,"NOP16 (peptide sequence: YMVENHGEDYK, peptide start residue: 121) (UniProt Q9Y3C1)",-0.26
18,"MRPL42 (peptide sequence: VEHLEEGPMIEQLSK, peptide start residue: 100) (UniProt Q9Y6G3)",-0.0123
19,"UniProt Q9Y592 (peptide sequence: KEELETENQVLNR, peptide start residue: 592)",-0.267
20,"TIMM9 (peptide sequence: LTETCFLDCVKDFTTR, peptide start residue: 24) (UniProt Q9Y5J7)",0.0667
21,"CCDC9 (peptide sequence: SVEKENVAVESEK, peptide start residue: 60) (UniProt Q9Y3X0)",-0.242
22,"PPME1 (peptide sequence: HRFAEPIGGFQCVFPGC, peptide start residue: 370) (UniProt Q9Y570)",0.654
23,"UniProt Q9Y3I0 (peptide sequence: DKIIVNDR, peptide start residue: 284)",0.199
24,"N6AMT1 (peptide sequence: VHIQPVITDLVK, peptide start residue: 95) (UniProt Q9Y5N5)",0.307
25,"SLC30A1 (peptide sequence: AENIPAVVIEIK, peptide start residue: 485) (UniProt Q9Y6M5)",-0.0629
26,"IKBKG (peptide sequence: GMQLEDLK, peptide start residue: 257) (UniProt Q9Y6K9)",0.151
27,"NCOA3 (peptide sequence: YLLDRDDPSDALSK, peptide start residue: 740) (UniProt Q9Y6Q9)",-0.167
28,"DMXL1 (peptide sequence: MFLSYCILHGSHGGGLASVR, peptide start residue: 2132) (UniProt Q9Y485)",0.863
29,"UniProt Q9Y5P4 (peptide sequence: YFDACADAVSKDELQR, peptide start residue: 181)",-0.216

# Reformatted tab-delimited: part of the list above
row	Target	log2 fold change
7	PRSS21 (peptide sequence: LSAPVTYTK, peptide start residue: 143) (UniProt Q9Y6M0)	-0.111
8	TPRKB (peptide sequence: MQLTHQLDLFPECR, peptide start residue: 1) (UniProt Q9Y3C4)	0.33
9	PCYT1B (peptide sequence: MLQALSPK, peptide start residue: 310) (UniProt Q9Y5K3)	0.0714
10	SAR1B (peptide sequence: TTLLHMLKDDR, peptide start residue: 39) (UniProt Q9Y6B6)	0.31
11	UBIAD1 (peptide sequence: INILSGETVK, peptide start residue: 11) (UniProt Q9Y5Z9)	0.34
